No constants are given. Whether binding was seen depends on the method and setting. For part of these data: Binding seen in cells or lysates may run through a third protein. Some entries that bind do so weakly or less than the wild type. Sequences can lack the tags named with a protein. Each block holds one binder with its values, some of them ahead of it.
How the values were obtained:
[1] = target: T1, Pex5 (full-length yeast Pex5, 1-612), His-Sumo cleaved off (Saccharomyces cerevisiae) (UniProt P35056); assay: cryo-EM structure
T1 sequence: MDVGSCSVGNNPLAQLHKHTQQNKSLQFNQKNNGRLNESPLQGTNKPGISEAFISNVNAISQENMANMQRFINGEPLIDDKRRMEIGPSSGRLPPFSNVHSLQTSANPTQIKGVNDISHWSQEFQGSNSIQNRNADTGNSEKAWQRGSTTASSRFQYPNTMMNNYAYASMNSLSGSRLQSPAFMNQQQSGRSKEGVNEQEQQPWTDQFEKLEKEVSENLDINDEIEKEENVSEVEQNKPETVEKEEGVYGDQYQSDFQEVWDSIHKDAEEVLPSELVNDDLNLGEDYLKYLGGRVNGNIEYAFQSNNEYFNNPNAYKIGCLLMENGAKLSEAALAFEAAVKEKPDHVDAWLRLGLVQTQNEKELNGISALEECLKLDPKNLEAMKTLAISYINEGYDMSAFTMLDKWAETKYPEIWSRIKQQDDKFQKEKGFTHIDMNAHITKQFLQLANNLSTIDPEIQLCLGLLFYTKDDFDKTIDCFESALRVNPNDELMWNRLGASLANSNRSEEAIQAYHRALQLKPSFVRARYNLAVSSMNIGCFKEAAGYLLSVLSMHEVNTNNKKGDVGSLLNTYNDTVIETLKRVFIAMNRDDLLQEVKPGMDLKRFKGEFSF

[2] = target: T2, His-SUMO-Pex5 (full-length PEX5, 1-612, Saccharomyces cerevisiae) (Saccharomyces cerevisiae) (UniProt P35056); assay: pull-down
T2 sequence: T1 sequence

binding [1]: binds | binding [2]: binds
B1: FLAG-Eci1 (yeast delta3, delta2-Enoyl-CoA Isomerase 1) (enzyme, Saccharomyces cerevisiae (yeast), UniProt Q05871 1-280, looked up)
chain: MSQEIRQNEKISYRIEGPFFIIHLMNPDNLNALEGEDYIYLGELLELADRNRDVYFTIIQSSGRFFSSGADFKGIAKAQGDDTNKYPSETSKWVSNFVARNVYVTDAFIKHSKVLICCLNGPAIGLSAALVALCDIVYSINDKVYLLYPFANLGLITEGGTTVSLPLKFGTNTTYECLMFNKPFKYDIMCENGFISKNFNMPSSNAEAFNAKVLEELREKVKGLYLPSCLGMKKLLKSNHIDAFNKANSVEVNESLKYWVDGEPLKRFRQLGSKQRKHRL

binding [2]: binds
B2: FLAG-Eci1 ΔPTS1 (Eci1 without its last three amino acids 278HRL280) (domain or fragment, UniProt Q05871 1-277)
chain: MSQEIRQNEKISYRIEGPFFIIHLMNPDNLNALEGEDYIYLGELLELADRNRDVYFTIIQSSGRFFSSGADFKGIAKAQGDDTNKYPSETSKWVSNFVARNVYVTDAFIKHSKVLICCLNGPAIGLSAALVALCDIVYSINDKVYLLYPFANLGLITEGGTTVSLPLKFGTNTTYECLMFNKPFKYDIMCENGFISKNFNMPSSNAEAFNAKVLEELREKVKGLYLPSCLGMKKLLKSNHIDAFNKANSVEVNESLKYWVDGEPLKRFRQLGSKQRK
